The target in experiment [1] is T1, ErbB-3 receptor-Ig fusion (human, UniProt P21860 20-643).
T1 construct: extracellular domain;range 224-C-terminus; also called ErbB-3-Ig; 3/3 homodimer; not shown: human IgG heavy chain constant region from His224 (hinge) on
Put plainly: phage ELISA. On the technique in general: ELISA stands for enzyme-linked immunosorbent assay.

The target of experiment [2] is T2, ErbB-4 receptor-Ig fusion (human, UniProt Q15303 26-651).
T2 construct: extracellular domain;range 224-C-terminus; also called ErbB-4-Ig; not shown: human IgG heavy chain constant region from His224 (hinge) on
T2 sequence: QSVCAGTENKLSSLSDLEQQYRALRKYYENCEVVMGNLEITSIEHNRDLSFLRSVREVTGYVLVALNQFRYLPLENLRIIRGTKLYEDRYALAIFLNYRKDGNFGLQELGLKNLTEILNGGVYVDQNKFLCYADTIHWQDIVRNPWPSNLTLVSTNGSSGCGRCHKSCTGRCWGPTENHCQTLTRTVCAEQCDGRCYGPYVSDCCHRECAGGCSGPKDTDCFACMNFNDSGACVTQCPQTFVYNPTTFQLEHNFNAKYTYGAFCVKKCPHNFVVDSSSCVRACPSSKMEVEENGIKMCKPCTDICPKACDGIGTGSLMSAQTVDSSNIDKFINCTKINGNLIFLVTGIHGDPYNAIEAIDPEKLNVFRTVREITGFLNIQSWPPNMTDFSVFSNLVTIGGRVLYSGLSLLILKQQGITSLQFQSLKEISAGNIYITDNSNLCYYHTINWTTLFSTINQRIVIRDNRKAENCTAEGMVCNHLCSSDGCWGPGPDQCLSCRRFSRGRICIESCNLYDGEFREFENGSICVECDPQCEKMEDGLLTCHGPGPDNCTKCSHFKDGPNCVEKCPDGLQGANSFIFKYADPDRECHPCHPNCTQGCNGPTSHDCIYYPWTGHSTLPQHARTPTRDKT
Put plainly: phage ELISA.

Experiment [3] has as its target T1, ErbB-3 receptor-Ig fusion. Put plainly: phage ELISA; ratio to wild-type HRG8 phage.

Experimental findings from patent US20060183194A1 (Genentech, published 2006) are described below.

Where a chain is given by its changes, count along the chain named. Numbers in names are those of the source. No constants are given. Whether binding was seen depends on the method and setting. Some binding calls cover weakened binding; strength is not graded here. For some of these results: Tags and fused reporters may be left off the sequences shown.

B1: Library A variant A1 of HRG-β1 EGF on phage (ligand, not shown: large carriers; small tags and cut ends)
chain: WRLVPCAEKEKTFCVNGGECFMVKDLSNPSRYLCKCPNEFTGDRCQNYVMAS
In the case of B1, the binding entry in experiment [1] was “binds”.

B2: Library D variant D4 of HRG-β1 EGF on phage (ligand, not shown: large carriers; small tags and cut ends)
chain: B1 chain with W1S, R2H, P5K, F21Y, M22R, D25T
For the molecule B2, in experiment [2], the binding entry was “binds”.

B3: Library A variant A2 of HRG-β1 EGF on phage (ligand, not shown: large carriers; small tags and cut ends)
chain: B1 chain with R2S, V4Q
B3: the binding result in experiment [1] is recorded as “binds”.

B4: Library I variant I1 of HRG-β1 EGF on phage (ligand, not shown: large carriers; small tags and cut ends)
chain: B1 chain with W1S, R2H, P5K, N47W, M50I
Regarding B4, in experiment [2], the binding result is given as “binds”.

B5: Library A variant A4 of HRG-β1 EGF on phage (ligand, not shown: large carriers; small tags and cut ends)
chain: B1 chain with R2S, P5K
Take B5: the binding result in experiment [3] is “no binding (tested: EC50 (wt)/EC50 (mut) below 0.3)”.

B6: Library I variant I2 of HRG-β1 EGF on phage (ligand, not shown: large carriers; small tags and cut ends)
chain: B1 chain with W1S, R2H, P5K, N47H, M50I
As for B6, the binding result in experiment [2] is given as “binds”.

B7: HRG-β1 177-244 H178L on phage (ligand, not shown: large carriers; small tags and cut ends)
chain: SLLVKCAEKEKTFCVNGGECFMVKDLSNPSRYLCKCPNEFTGDRCQNYVMASFYKHLGIEFMEAEELY
On to B7, for which the binding entry in experiment [1] is listed as “binds”.
